# Experimental data taken from article PMC11375786 (Biochemistry, 2024).
# Assay: general procedure: Fmoc solid-phase peptide synthesis; Fmoc-Gly-2-Trt-Resin; DIC/HOBt (SPPS); PyBOP/DIEA or HBTU/HOBt/DIEA (coupling with 9)
# Conditions: whole synthesis, TFA salt
substance,measurement,setting,value
Boc-K(Boc)K(Boc)K(Boc)[Cha]G-OH,isolated mass,scale 0.06 mmol,61 mg
Boc-K(Boc)[Cha]K(Boc)[Cha]K(Boc)G-OH,isolated mass,scale 0.14 mmol,164 mg
Boc-R(Boc)[Cha]R(Pbf)[Cha]R(Pbf)G-OH,isolated mass,scale 0.17 mmol,212 mg
same,isolated yield,scale 0.17 mmol,81%
H-K(Boc)K(Boc)K(Boc)[Cha]E(OBn)G-OH,isolated mass,scale 0.12 mmol,127 mg
same,isolated yield,scale 0.12 mmol,96%

# Square brackets hold non-standard residues; d marks the D form. * marks the point of attachment. Pbf = Cc1c(C)c(S(=O)(=O)*)c(C)c2c1OC(C)(C)C2; Cha = N[C@@H](CC1CCCCC1)C(=O)O; Boc = CC(C)(C)OC(=O)*; OBn = c1ccc(CO*)cc1
